Laboratory results published in article doi:10.1101/2025.10.22.683978.

Molecular target: recombinant Oct1 DNA binding domain, C-terminally Twinstrep-tagged
Assay: native gel or EMSA

binding: binds
B1: recombinant full-length OCA-B with a C-terminal FLAG tag (protein, UniProt Q16633 1-256)
chain: MLWQKPTAPEQAPAPARPYQGVRVKEPVKELLRRKRGHASSGAAPAPTAVVLPHQPLATYTTVGPSCLDMEGSVSAVTEEAALCAGWLSQPTPATLQPLAPWTPYTEYVPHEAVSCPYSADMYVQPVCPSYTVVGPSSVLTYASPPLITNVTTRSSATPAVGPPLEGPEHQAPLTYFPWPQPLSTLPTSTLQYQPPAPALPGPQFVQLPISIPEPVLQDMEDPRRAASSLTIDKLLLEEEDSDAYALNHTLSVEGF

Results are given in words; binding and its absence hold for the method and conditions named. Binding calls can cover weak binding; strength is not graded here. Sequences can lack the tags named with a protein.
